From the supplement of paper PMC10849652
The list shows a part of the results.

The chains behind the UniProt entries cited, without tags or fusion partners. Where a name states a change or a piece, a line headed by the entry shows the natural chain unless it says otherwise.
UniProt Q9P2I0: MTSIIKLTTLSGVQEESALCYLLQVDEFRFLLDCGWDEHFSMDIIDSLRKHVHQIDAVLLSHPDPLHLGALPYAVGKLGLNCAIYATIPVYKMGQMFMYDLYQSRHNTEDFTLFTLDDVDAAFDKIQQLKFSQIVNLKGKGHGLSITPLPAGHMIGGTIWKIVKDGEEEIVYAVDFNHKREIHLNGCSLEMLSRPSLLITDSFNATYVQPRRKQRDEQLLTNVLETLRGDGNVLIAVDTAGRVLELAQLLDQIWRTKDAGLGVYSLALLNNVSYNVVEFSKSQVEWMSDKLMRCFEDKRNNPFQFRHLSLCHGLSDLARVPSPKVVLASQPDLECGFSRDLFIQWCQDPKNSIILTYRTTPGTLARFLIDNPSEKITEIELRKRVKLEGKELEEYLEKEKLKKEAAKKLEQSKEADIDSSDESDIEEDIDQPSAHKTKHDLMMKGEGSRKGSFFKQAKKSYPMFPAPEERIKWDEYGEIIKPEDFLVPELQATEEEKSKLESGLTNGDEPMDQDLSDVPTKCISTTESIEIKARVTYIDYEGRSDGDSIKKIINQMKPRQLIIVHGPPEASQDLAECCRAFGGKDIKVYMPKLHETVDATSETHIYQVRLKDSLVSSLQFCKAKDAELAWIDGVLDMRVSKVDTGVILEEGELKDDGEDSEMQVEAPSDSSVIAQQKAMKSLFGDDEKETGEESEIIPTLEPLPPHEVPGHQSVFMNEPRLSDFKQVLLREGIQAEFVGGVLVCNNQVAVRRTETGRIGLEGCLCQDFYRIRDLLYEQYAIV
UniProt Q9UJA2: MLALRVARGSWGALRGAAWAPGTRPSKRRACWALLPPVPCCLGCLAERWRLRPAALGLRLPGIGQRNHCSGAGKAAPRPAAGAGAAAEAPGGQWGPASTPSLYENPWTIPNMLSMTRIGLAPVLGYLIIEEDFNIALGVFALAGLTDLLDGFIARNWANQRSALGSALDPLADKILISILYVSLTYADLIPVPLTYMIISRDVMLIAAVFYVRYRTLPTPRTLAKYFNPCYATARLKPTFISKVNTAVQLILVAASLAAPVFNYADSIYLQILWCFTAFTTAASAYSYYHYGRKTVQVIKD
UniProt Q16630, whole entry, looked up: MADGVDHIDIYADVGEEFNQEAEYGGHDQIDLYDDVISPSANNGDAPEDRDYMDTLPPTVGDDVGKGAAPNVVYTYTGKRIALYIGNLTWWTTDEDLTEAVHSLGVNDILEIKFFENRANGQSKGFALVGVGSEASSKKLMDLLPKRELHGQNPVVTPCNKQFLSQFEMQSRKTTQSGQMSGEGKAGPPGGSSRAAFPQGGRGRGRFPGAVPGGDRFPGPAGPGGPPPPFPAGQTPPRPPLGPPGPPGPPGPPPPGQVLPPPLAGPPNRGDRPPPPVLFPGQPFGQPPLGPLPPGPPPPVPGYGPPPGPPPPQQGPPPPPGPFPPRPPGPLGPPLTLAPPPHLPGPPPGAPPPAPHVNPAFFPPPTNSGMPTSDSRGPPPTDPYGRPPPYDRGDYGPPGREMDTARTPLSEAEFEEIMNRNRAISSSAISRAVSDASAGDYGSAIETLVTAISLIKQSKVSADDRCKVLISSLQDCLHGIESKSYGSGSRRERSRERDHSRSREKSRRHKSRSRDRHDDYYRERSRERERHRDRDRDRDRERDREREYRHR
UniProt P46109: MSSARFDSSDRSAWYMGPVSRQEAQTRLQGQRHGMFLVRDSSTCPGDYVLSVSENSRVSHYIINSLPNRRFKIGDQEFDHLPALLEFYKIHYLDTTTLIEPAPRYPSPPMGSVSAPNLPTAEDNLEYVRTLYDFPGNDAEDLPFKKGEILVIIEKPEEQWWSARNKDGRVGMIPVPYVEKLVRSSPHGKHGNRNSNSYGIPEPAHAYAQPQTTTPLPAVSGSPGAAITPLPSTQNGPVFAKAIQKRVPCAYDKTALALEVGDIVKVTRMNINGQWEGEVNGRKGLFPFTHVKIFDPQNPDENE
UniProt P78368: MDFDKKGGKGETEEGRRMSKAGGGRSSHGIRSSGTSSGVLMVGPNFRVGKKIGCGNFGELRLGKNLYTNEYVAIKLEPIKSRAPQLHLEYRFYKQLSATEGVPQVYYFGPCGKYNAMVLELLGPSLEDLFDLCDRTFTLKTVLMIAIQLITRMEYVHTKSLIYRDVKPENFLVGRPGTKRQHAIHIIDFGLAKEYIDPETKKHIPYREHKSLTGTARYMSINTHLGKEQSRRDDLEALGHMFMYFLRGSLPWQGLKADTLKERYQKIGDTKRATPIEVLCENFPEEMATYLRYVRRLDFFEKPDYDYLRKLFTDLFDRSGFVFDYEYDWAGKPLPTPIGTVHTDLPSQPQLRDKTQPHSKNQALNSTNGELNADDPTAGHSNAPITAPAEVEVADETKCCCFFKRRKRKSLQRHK
UniProt Q53ET0: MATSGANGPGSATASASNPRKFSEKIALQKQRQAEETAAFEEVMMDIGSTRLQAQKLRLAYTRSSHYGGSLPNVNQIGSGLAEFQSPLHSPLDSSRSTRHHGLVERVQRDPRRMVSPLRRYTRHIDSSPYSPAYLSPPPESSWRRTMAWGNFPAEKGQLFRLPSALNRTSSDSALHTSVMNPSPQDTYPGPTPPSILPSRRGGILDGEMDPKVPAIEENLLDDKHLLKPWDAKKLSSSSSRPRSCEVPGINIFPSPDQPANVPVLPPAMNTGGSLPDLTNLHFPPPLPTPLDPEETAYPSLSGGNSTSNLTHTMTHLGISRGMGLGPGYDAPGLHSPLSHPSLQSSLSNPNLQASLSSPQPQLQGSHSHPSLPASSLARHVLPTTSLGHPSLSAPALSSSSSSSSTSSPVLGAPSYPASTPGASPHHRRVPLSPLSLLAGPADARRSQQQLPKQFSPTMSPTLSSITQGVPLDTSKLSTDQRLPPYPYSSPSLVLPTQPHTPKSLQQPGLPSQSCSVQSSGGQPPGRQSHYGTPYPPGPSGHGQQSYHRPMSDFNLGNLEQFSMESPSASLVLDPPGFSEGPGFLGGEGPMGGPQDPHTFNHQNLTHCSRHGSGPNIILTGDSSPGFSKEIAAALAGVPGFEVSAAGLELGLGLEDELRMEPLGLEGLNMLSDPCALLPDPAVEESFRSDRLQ
UniProt P24311, whole entry, looked up: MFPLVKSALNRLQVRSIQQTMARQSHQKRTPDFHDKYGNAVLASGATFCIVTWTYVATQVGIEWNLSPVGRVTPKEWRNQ
UniProt P19784, whole entry, looked up: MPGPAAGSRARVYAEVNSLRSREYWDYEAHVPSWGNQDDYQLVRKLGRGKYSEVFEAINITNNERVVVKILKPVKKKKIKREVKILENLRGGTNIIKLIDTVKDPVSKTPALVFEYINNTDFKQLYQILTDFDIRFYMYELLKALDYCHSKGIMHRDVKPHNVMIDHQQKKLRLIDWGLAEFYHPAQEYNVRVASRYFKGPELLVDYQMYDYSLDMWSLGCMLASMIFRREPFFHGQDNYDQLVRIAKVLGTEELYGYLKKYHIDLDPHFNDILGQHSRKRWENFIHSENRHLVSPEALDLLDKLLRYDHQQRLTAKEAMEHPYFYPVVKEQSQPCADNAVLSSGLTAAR
UniProt Q14061: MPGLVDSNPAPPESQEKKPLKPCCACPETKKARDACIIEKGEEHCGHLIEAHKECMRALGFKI
UniProt P21964: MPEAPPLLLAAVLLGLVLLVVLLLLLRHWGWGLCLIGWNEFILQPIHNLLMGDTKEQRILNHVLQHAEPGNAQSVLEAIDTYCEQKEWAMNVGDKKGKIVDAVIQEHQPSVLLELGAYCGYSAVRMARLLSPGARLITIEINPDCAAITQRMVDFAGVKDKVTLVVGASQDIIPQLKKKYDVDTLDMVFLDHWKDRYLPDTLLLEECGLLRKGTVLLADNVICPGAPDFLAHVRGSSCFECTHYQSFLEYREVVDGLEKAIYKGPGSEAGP
UniProt Q9UNS2: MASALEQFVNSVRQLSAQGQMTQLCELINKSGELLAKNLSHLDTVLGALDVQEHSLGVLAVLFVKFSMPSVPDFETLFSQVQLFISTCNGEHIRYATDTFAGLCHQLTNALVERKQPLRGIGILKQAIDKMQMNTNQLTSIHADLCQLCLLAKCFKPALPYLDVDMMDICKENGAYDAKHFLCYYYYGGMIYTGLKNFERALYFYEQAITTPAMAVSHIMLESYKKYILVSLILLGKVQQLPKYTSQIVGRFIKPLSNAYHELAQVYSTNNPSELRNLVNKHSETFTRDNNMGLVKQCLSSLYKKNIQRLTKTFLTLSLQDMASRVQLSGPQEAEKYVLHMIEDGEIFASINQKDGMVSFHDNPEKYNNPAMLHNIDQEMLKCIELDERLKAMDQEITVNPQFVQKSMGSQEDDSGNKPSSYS
UniProt Q6QEF8, whole entry, looked up: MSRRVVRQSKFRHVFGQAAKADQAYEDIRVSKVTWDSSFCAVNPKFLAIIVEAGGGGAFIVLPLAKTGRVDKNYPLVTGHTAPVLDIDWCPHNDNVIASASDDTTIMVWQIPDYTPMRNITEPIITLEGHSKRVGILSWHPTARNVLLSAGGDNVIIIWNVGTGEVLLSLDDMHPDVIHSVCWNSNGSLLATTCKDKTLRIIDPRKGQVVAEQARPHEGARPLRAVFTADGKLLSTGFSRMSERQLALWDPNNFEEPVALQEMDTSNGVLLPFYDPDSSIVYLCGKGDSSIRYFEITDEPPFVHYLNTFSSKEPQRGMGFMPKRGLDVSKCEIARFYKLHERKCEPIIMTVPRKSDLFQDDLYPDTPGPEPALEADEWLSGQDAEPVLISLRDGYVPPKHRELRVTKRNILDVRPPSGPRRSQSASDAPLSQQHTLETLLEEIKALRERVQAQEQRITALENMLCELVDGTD
UniProt Q92828: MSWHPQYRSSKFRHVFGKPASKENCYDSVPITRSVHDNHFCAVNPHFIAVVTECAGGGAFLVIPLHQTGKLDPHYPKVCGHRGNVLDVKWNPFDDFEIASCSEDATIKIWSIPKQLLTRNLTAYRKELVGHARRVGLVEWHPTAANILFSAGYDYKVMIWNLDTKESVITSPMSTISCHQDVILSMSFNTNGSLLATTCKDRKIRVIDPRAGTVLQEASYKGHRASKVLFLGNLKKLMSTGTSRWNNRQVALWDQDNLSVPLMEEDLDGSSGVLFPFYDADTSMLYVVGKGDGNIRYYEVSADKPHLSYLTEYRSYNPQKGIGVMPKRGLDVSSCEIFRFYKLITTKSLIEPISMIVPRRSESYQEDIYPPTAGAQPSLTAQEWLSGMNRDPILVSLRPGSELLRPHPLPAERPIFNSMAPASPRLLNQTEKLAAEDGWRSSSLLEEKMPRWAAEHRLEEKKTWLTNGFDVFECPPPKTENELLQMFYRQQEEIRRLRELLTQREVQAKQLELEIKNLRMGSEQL
UniProt Q9HCH3: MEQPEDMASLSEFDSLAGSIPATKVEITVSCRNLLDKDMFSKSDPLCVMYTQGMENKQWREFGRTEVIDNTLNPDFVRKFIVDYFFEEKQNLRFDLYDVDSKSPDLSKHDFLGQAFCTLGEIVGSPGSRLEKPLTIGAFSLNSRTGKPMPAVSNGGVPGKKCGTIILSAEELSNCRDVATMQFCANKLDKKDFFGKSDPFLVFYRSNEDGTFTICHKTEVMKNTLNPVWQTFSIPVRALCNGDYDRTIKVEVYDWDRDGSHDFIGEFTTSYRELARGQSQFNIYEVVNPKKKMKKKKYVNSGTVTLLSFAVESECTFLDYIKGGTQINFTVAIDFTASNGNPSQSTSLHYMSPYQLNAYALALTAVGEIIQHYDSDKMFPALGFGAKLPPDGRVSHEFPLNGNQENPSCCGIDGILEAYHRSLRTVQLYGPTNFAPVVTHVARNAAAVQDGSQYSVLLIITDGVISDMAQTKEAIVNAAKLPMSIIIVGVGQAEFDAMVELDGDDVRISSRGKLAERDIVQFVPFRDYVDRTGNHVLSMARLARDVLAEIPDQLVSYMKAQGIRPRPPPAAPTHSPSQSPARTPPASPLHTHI
UniProt Q7Z4G1, whole entry, looked up: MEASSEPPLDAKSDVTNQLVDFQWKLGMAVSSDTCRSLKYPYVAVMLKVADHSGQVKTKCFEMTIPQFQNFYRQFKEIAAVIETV
UniProt Q9UBL6: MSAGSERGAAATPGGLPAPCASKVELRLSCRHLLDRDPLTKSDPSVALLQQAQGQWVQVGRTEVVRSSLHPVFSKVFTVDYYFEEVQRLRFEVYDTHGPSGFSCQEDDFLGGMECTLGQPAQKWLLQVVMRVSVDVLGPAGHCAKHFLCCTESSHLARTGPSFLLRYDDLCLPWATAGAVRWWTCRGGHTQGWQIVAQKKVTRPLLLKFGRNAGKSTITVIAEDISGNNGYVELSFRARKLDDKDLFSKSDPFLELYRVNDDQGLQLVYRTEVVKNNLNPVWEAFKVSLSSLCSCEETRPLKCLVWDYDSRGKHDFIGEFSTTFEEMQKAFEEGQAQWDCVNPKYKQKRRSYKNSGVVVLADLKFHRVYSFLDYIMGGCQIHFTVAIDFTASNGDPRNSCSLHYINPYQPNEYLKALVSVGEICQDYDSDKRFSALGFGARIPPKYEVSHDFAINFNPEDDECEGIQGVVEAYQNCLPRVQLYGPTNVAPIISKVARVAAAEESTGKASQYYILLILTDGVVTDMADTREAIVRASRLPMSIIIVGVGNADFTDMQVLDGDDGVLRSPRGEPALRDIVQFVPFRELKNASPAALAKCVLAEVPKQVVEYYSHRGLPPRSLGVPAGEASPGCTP

Key:
Experiment in all cases: log2 fold change, soluble protein after heating vs DMSO (PISA); higher = thermal stabilisation; K562 cells, 10 uM, 30 min; active = over 0.2 and 3.5 SD of the protein, either way, in both replicates (recomputed)
[1] = compound: CS(=O)(=O)c1ccc(-c2cnc(N)c(C(=O)Nc3ccccc3)n2)cc1
Summary of the method: (§1)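 Soluble protein was defined as the supernatant after 21,000xg for 90 min. It came from K562 cells at 2×10^6 cells/mL given 10 μM compound for 30 min, heated in aliquots for 3 min across 48°C-58°C, pooled, and extracted in PBS with 0.5% NP-40 at 4°C, and was quantified by TMTpro 16plex LC-MS/MS with equalised channel sums. Thermal stability against control samples, from duplicates, is reported as log2 fold change.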

crizotinib = compound: C[C@@H](Oc1cc(-c2cnn(C3CCNCC3)c2)cnc1N)c1c(Cl)ccc(F)c1Cl [crizotinib]
Summary of the method: as §1

[2] = compound: C[C@@H]1COCCN1C2=NC(=NC(=C2)C3(CC3)S(=O)(=O)C)C4=C5C=CNC5=CC=C4
Summary of the method: as §1

duvelisib = compound: C[C@H](Nc1ncnc2nc[nH]c12)c1cc2cccc(Cl)c2c(=O)n1-c1ccccc1 [duvelisib]
Summary of the method: as §1

gandotinib = compound: Cc1cc(Nc2cc(CN3CCOCC3)c3nc(C)c(Cc4ccc(Cl)cc4F)n3n2)n[nH]1 [gandotinib]
Summary of the method: as §1

tozasertib = compound: Cc1cc(Nc2cc(N3CCN(C)CC3)nc(Sc3ccc(NC(=O)C4CC4)cc3)n2)n[nH]1 [tozasertib]
Summary of the method: as §1

[3] = compound: Cc1cc(SCc2sc(-c3ccc(C(F)(F)F)cc3)nc2C)ccc1OCC(=O)O
Summary of the method: as §1

doramapimod = compound: Cc1ccc(-n2nc(C(C)(C)C)cc2NC(=O)Nc2ccc(OCCN3CCOCC3)c3ccccc23)cc1 [doramapimod]
Summary of the method: as §1

ispinesib = compound: Cc1ccc(C(=O)N(CCCN)[C@@H](c2nc3cc(Cl)ccc3c(=O)n2Cc2ccccc2)C(C)C)cc1 [ispinesib]
Summary of the method: as §1

bafetinib = compound: Cc1ccc(NC(=O)c2ccc(CN3CC[C@H](N(C)C)C3)c(C(F)(F)F)c2)cc1Nc1nccc(-c2cncnc2)n1 [bafetinib]
Summary of the method: as §1

[4] = compound: Cc1cccc(CC(=O)N2CCc3c2ccc(-c2cn(C)c4ncnc(N)c24)c3F)n1
Summary of the method: as §1

nilotinib = compound: Cc1cn(-c2cc(NC(=O)c3ccc(C)c(Nc4nccc(-c5cccnc5)n4)c3)cc(C(F)(F)F)c2)cn1 [nilotinib]
Summary of the method: as §1

[5] = compound: Cc1nc(Nc2n[nH]c3c2CN(C(=O)N[C@H](CN(C)C)c2ccccc2)C3(C)C)c2sccc2n1
Summary of the method: as §1

dasatinib = compound: Cc1nc(Nc2ncc(C(=O)Nc3c(C)cccc3Cl)s2)cc(N2CCN(CCO)CC2)n1 [dasatinib]
Summary of the method: as §1

[6] = compound: Cc1ncc(-c2ccnc(Nc3ccc(S(C)(=O)=O)cc3)n2)n1C(C)C
Summary of the method: as §1

[7] = compound: Cn1cc(-c2ccc3nnc(C(F)(F)c4ccc5ncccc5c4)n3n2)cn1
Summary of the method: as §1

tipifarnib = compound: Cn1cncc1[C@@](N)(c1ccc(Cl)cc1)c1ccc2c(c1)c(-c1cccc(Cl)c1)cc(=O)n2C [tipifarnib]
Summary of the method: as §1

mubritinib = compound: FC(F)(F)c1ccc(/C=C/c2nc(COc3ccc(CCCCn4ccnn4)cc3)co2)cc1 [mubritinib]
Summary of the method: as §1

[8] = compound: C[C@H](C1=CC=C(C=C1)C(=O)NC2=C3C=CNC3=NC=C2)N
Summary of the method: as §1

[9] = compound: Cn1cc(-c2ccc3c(c2)CCN3C(=O)Cc2cccc(C(F)(F)F)c2)c2c(N)ncnc21
Summary of the method: as §1

Row | Target | log2 fold change [1] | log2 fold change (crizotinib) | log2 fold change [2] | log2 fold change (duvelisib) | log2 fold change (gandotinib) | log2 fold change (tozasertib) | log2 fold change [3] | log2 fold change (doramapimod) | log2 fold change (ispinesib) | log2 fold change (bafetinib) | log2 fold change [4] | log2 fold change (nilotinib) | log2 fold change [5] | log2 fold change (dasatinib) | log2 fold change [6] | log2 fold change [7] | log2 fold change (tipifarnib) | log2 fold change (mubritinib) | log2 fold change [8] | log2 fold change [9]
1 | CPSF2 (UniProt Q9P2I0) | inactive: 0.046 | inactive: -0.264 | inactive: 0.086 | inactive: -0.008 | inactive: -0.097 | inactive: 0.063 | inactive: 0.087 | inactive: 0.057 | inactive: -0.093 | inactive: 0.043 | inactive: 0.032 | inactive: -0.143 | inactive: -0.041 | inactive: -0.056 | inactive: 0.093 | inactive: 0.006 | inactive: 0.042 | inactive: 0.166 |  | 
2 | CS (UniProt O75390) | inactive: 0.044 | inactive: -0.122 | inactive: 0.072 |  | inactive: -0.037 |  | inactive: 0.061 | inactive: 0.017 | inactive: -0.157 | inactive: 0.013 | inactive: -0.061 | inactive: 0.011 | inactive: -0.051 | inactive: -0.131 | inactive: -0.097 | inactive: 0.083 | inactive: -0.033 | inactive: 0.015 | inactive: -0.034 | inactive: 0.075
3 | CRLS1 (UniProt Q9UJA2) | inactive: -0.228 | inactive: 0.02 |  |  | inactive: -0.083 |  | inactive: 0.05 | inactive: 0.023 |  |  | inactive: 0.012 | inactive: 0.01 | inactive: -0.064 | inactive: 0.101 | inactive: 0.056 |  | inactive: -0.138 | inactive: 0.007 | inactive: -0.047 | inactive: -0.002
4 | CPSF6 isoform 2 (UniProt Q16630) | inactive: -0.014 | inactive: -0.025 | inactive: 0.075 |  | inactive: -0.034 |  | inactive: -0.012 | inactive: 0.004 | inactive: 0.11 | inactive: 0.079 | inactive: -0.136 | inactive: 0.06 | active: -1.43 | inactive: 0.009 | inactive: 0.014 | inactive: -0.008 | inactive: 0.031 | inactive: 0.006 | active: -0.292 | inactive: 0.039
5 | CRKL (UniProt P46109) | inactive: 0.037 | active: -1.34 | inactive: 0.008 |  | inactive: -0.027 |  | inactive: 0.012 | inactive: -0.024 | inactive: 0.046 | active: -1.41 | inactive: 0.013 | active: -1.34 | inactive: -0.054 | active: -2.17 | inactive: 0.023 | inactive: 0.028 | inactive: 0.024 | inactive: 0.049 | inactive: -0.045 | inactive: 0.004
6 | CSNK1G2 (UniProt P78368) | inactive: 0.121 | inactive: -0.203 | inactive: -0.129 |  | inactive: 0.113 | inactive: 0.116 |  | inactive: 0.07 |  |  | inactive: -0.058 | inactive: 0.014 | inactive: -0.023 |  | inactive: 0.062 |  |  | inactive: -0.006 |  | 
7 | CRTC2 (UniProt Q53ET0) | inactive: -0.02 | inactive: -0.077 | inactive: 0.08 |  |  |  |  | inactive: 0.062 | inactive: 0.012 | inactive: -0.035 |  | inactive: 0.038 | inactive: 0.01 |  | inactive: -0.094 | inactive: -0.081 | inactive: -0.092 | inactive: 0.022 |  | 
8 | COX7B (UniProt P24311) | inactive: -0.026 | inactive: 0.013 | inactive: 0.02 |  | inactive: 0.05 |  | inactive: 0.014 | inactive: -0.067 |  | inactive: 0.109 | inactive: 0.037 | inactive: 0.053 | inactive: 0.037 | inactive: 0.074 | inactive: 0.01 |  | inactive: -0.024 | inactive: 0.026 | inactive: -0.171 | inactive: -0.011
9 | CSNK2A2 (UniProt P19784) | inactive: 0.068 | inactive: -0.132 | inactive: 0.039 |  | inactive: -0.097 |  | inactive: 0.013 | inactive: 0.007 | inactive: 0.084 | inactive: -0.042 | inactive: -0.008 | inactive: -0.009 | inactive: 0.016 | inactive: -0.056 | inactive: -0.019 | inactive: 0.038 | inactive: -0.033 | inactive: -0.019 | active: -0.234 | inactive: -0.009
10 | COX17 (UniProt Q14061) | inactive: 0.026 | inactive: 0.164 | inactive: 0.206 |  | inactive: -0.11 |  | inactive: -0.021 | inactive: -0.037 | inactive: 0.137 |  | inactive: 0.078 | inactive: -0.091 | inactive: -0.051 | inactive: 0.016 | inactive: -0.162 | inactive: -0.034 |  | inactive: 0.038 | inactive: -0.072 | inactive: 0.206
11 | COMT (UniProt P21964) | inactive: 0.04 | active: 0.352 | inactive: 0.053 |  | inactive: 0.031 |  | inactive: 0.02 | inactive: 0 | active: 0.235 | inactive: 0.011 | inactive: -0.019 | inactive: 0.01 | inactive: 0.119 | inactive: 0.03 | inactive: 0.009 | inactive: 0.031 | inactive: 0.002 | inactive: 0.06 | inactive: -0.081 | inactive: 0.073
12 | COPS3 isoform 2 (UniProt Q9UNS2) | inactive: 0.054 | inactive: 0.046 | inactive: 0.116 |  | inactive: -0.084 |  |  | inactive: 0.028 | inactive: -0.371 | inactive: -0.19 | inactive: -0.295 | inactive: -0.041 | inactive: 0.227 |  | inactive: -0.194 | inactive: 0.418 | inactive: 0.029 | inactive: 0.138 |  | 
13 | CORO6 isoform 5 (UniProt Q6QEF8) | inactive: 0.091 | inactive: 0.021 | inactive: 0.028 |  |  | inactive: -0.165 |  | inactive: -0.031 |  |  |  |  |  |  |  |  |  |  |  | 
14 | CORO2A (UniProt Q92828) | inactive: -0.085 |  |  |  | inactive: 0.061 |  | inactive: 0.023 |  | inactive: -0.046 | inactive: 0.021 | inactive: 0.015 | inactive: -0.047 | inactive: -0.052 | inactive: -0.066 | inactive: -0.049 | inactive: -0.255 | inactive: -0.005 | inactive: 0.048 | inactive: 0.101 | inactive: -0.017
15 | CPNE5 (UniProt Q9HCH3) |  |  |  |  |  |  |  |  |  |  |  |  |  |  |  |  |  |  | inactive: 0.148 | inactive: -0.077
16 | COMMD6 isoform 2 (UniProt Q7Z4G1) |  |  | inactive: 0.007 |  | inactive: -0.065 |  |  |  |  |  | inactive: 0.01 |  |  |  |  |  |  |  |  | 
17 | CPNE7 (UniProt Q9UBL6) |  | inactive: 0.09 |  | inactive: 0.069 |  | inactive: -0.03 | inactive: 0.127 | inactive: 0.017 | inactive: 0.089 | inactive: 0.028 |  | inactive: 0.057 | inactive: -0.077 | inactive: -0.067 | inactive: -0.073 | inactive: 0.079 | inactive: -0.073 | inactive: 0.097 | inactive: -0.015 | inactive: 0.092

Part of the list above, with tabs.
Row	Target	log2 fold change [1]	log2 fold change (crizotinib)	log2 fold change [2]	log2 fold change (duvelisib)	log2 fold change (gandotinib)	log2 fold change (tozasertib)	log2 fold change [3]	log2 fold change (doramapimod)	log2 fold change (ispinesib)	log2 fold change (bafetinib)	log2 fold change [4]	log2 fold change (nilotinib)	log2 fold change [5]	log2 fold change (dasatinib)	log2 fold change [6]	log2 fold change [7]	log2 fold change (tipifarnib)	log2 fold change (mubritinib)	log2 fold change [8]	log2 fold change [9]
6	CSNK1G2 (UniProt P78368)	inactive: 0.121	inactive: -0.203	inactive: -0.129		inactive: 0.113	inactive: 0.116		inactive: 0.07			inactive: -0.058	inactive: 0.014	inactive: -0.023		inactive: 0.062			inactive: -0.006		
8	COX7B (UniProt P24311)	inactive: -0.026	inactive: 0.013	inactive: 0.02		inactive: 0.05		inactive: 0.014	inactive: -0.067		inactive: 0.109	inactive: 0.037	inactive: 0.053	inactive: 0.037	inactive: 0.074	inactive: 0.01		inactive: -0.024	inactive: 0.026	inactive: -0.171	inactive: -0.011
13	CORO6 isoform 5 (UniProt Q6QEF8)	inactive: 0.091	inactive: 0.021	inactive: 0.028			inactive: -0.165		inactive: -0.031												
15	CPNE5 (UniProt Q9HCH3)																			inactive: 0.148	inactive: -0.077
